Results taken from the supplement of paper PMC3334620.
In all, about 33,000 sequences were measured (“E-score (-0.5 to 0.5)”: median about -0.0059, highest 2% from about 0.26 on). Some of the results follow.

Target: T1, Cin5 (UniProt P40917)
T1 sequence: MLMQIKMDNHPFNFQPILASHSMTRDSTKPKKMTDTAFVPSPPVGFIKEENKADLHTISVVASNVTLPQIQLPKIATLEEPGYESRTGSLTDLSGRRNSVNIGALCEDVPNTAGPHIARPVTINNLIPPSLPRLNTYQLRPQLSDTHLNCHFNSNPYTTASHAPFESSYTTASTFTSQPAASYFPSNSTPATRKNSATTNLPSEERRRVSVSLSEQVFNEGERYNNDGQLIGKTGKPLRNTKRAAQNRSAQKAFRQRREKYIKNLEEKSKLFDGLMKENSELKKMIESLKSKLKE
Assay: PBM E-score (8-mer binding enrichment) (E-score (-0.5 to 0.5)); higher = stronger / more preferred TF binding
Conditions: protein concentration: 100 nM; construct: GST-full length
In short: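 Masliner-normalised scans of fluorescent anti-GST signal were the basis for scoring. That signal came from GST-tagged yeast transcription factors applied at about 100-200 nM to double-stranded universal all-10-mer Agilent arrays on fresh or once-stripped slides. Each ungapped eight-base word, pooled with its reverse complement, received an E-score from the Universal PBM Analysis Suite.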

First: GCCCCACA
Second: GAAGGAGC
The “PBM E-score” value of the first is higher: -0.043 for the first, -0.468 for the second.

Going from ACATCTGG to CTCCACGA, the “PBM E-score” value falls from -0.00408 to -0.211.

Compared with ATGCCTTG, CCAGGGCG is lower in “PBM E-score” value: -0.0648 for the first, -0.387 for the second.

Going from GAATTGAC to AATATAGG, the “PBM E-score” value rises from 0.0301 to 0.317.

Compared with TCGAACAA, CGTGGGAC is lower in “PBM E-score” value: 0.21 for the first, -0.0734 for the second.

First: CTGGCTCA
Second: ACCTCCTC
The “PBM E-score” value of the first is higher: 0.0435 for the first, -0.208 for the second.

Compared with GAATCTCC, CCCTTCTC is lower in “PBM E-score” value: -0.0861 for the first, -0.306 for the second.

First: CGCATCGC
Second: CCGAAAGA
The “PBM E-score” value of the first is lower: -0.195 for the first, 0.0644 for the second.

Going from CTTGTGTA to ATTGATGG, the “PBM E-score” value falls from 0.184 to 0.159.

Compared with CGACGGAG, CACCGGTG is lower in “PBM E-score” value: 0.0422 for the first, -0.184 for the second.

Going from CCTACGAA to GAAGGTCA, the “PBM E-score” value falls from -0.0315 to -0.153.

First: CCGTTCAC
Second: CAGCGCGG
The “PBM E-score” value of the first is lower: -0.0806 for the first, 0.107 for the second.

Going from ATCGTCGC to ATCCTCCG, the “PBM E-score” value falls from 0.0797 to -0.187.

Going from CGACACTC to GACAATAA, the “PBM E-score” value rises from -0.0648 to 0.19.

Going from CTAGTAAC to GACCCGCA, the “PBM E-score” value falls from 0.0514 to -0.134.

Compared with CCTACTCC, GCGCTCCA is lower in “PBM E-score” value: -0.0286 for the first, -0.152 for the second.

Compared with ACGTACTA, CGATTCTC is lower in “PBM E-score” value: 0.102 for the first, 0.0299 for the second.

Compared with GAGGGGAA, ATCAATGA is higher in “PBM E-score” value: -0.0452 for the first, 0.172 for the second.

Compared with AGACCCCT, GGCCCACC is lower in “PBM E-score” value: -0.186 for the first, -0.225 for the second.

Compared with ACGGGCCC, CGGACGAA is higher in “PBM E-score” value: -0.211 for the first, 0.15 for the second.

First: GGACTTGA
Second: ATTCTTGG
The “PBM E-score” value of the first is lower: -0.23 for the first, 0.153 for the second.

First: ATTAAACC
Second: GTTAATGA
The “PBM E-score” value of the first is higher: 0.178 for the first, 0.114 for the second.

Going from CGACAGCC to AAGACATC, the “PBM E-score” value falls from -0.0433 to -0.181.

Going from CACGCAGG to TAGCGTCA, the “PBM E-score” value rises from 0.00917 to 0.0184.

First: CCGGCCGA
Second: CAGCCCCG
The “PBM E-score” value of the first is lower: -0.195 for the first, -0.0863 for the second.

First: CCATAGCC
Second: CACTCTTC
The “PBM E-score” value of the first is lower: -0.165 for the first, -0.0303 for the second.

First: ATCGGCAT
Second: CAGTTGCA
The “PBM E-score” value of the first is higher: 0.108 for the first, -0.123 for the second.

Going from GTAGCAAA to CATGTTAC, the “PBM E-score” value rises from 0.126 to 0.131.

First: ATAGCTGA
Second: GATTTCCA
The “PBM E-score” value of the first is lower: 0.00854 for the first, 0.0947 for the second.

Going from AAACCAGG to ACCCTCAC, the “PBM E-score” value falls from -0.0663 to -0.112.

Going from GGAAGATA to CGCACCTC, the “PBM E-score” value falls from 0.13 to -0.183.

First: AAGCTAGA
Second: AAAATGTG
The “PBM E-score” value of the first is lower: -0.0103 for the first, 0.208 for the second.

First: CCGTGATA
Second: GCGATGAC
The “PBM E-score” value of the first is lower: -0.124 for the first, 0.0938 for the second.

First: GAGTGGAC
Second: AGGTTGGG
The “PBM E-score” value of the first is lower: -0.0829 for the first, -0.02 for the second.

Going from AATCCACA to CCGTCAAC, the “PBM E-score” value falls from 0.152 to -0.0405.

Going from CACCCCAG to AATATCCA, the “PBM E-score” value falls from 0.102 to 0.096.

First: AGTATGAC
Second: TCACCCCA
The “PBM E-score” value of the first is lower: 0.173 for the first, 0.188 for the second.

First: GTCGTGTA
Second: AACCCACG
The “PBM E-score” value of the first is higher: 0.0489 for the first, -0.122 for the second.

First: ATATAGAT
Second: AAGTAAGA
The “PBM E-score” value of the first is higher: 0.207 for the first, 0.0967 for the second.

Compared with AAGGCACG, AAATGTCC is lower in “PBM E-score” value: -0.0138 for the first, -0.169 for the second.

First: AATGGCGT
Second: AAATTCCC
The “PBM E-score” value of the first is higher: 0.061 for the first, -0.0118 for the second.

Compared with GCGCTACA, GGGGGATA is lower in “PBM E-score” value: -0.0801 for the first, -0.322 for the second.

Going from ACACCCAT to CATCTTTC, the “PBM E-score” value falls from 0.149 to 0.00885.

Going from AACTTACA to CATAAATG, the “PBM E-score” value falls from 0.162 to -0.125.

Compared with GCTAACGA, ACTCATCG is lower in “PBM E-score” value: 0.0476 for the first, -0.00039 for the second.

Going from GACAGGAC to CGTGTCCC, the “PBM E-score” value falls from -0.0829 to -0.143.

Compared with GGCCAGGA, AGCCAGAC is higher in “PBM E-score” value: -0.0739 for the first, -0.026 for the second.

Going from AGGTAGTC to GGCCTAGA, the “PBM E-score” value rises from -0.174 to -0.0235.

Compared with ACTCTGAC, CGACATTA is higher in “PBM E-score” value: 0.0108 for the first, 0.115 for the second.

First: GTAGCCTA
Second: CGTAAAAC
The “PBM E-score” value of the first is lower: -0.335 for the first, -0.123 for the second.

Going from GTAGCGAC to GCATTGAA, the “PBM E-score” value rises from -0.18 to 0.117.

Going from GTGAAACA to CCCCCAGG, the “PBM E-score” value falls from 0.0592 to -0.413.

First: ATGATTTC
Second: ATCCTGGA
The “PBM E-score” value of the first is higher: 0.238 for the first, 0.0802 for the second.

Compared with GGTCCATA, CGCGTGAA is higher in “PBM E-score” value: -0.0905 for the first, 0.117 for the second.

First: GAACTGGA
Second: TATGAAAA
The “PBM E-score” value of the first is higher: 0.158 for the first, 0.114 for the second.

Compared with ATGGTCAG, AGGATTAA is lower in “PBM E-score” value: 0.248 for the first, 0.0964 for the second.

First: CAAACTCC
Second: GATAGGCA
The “PBM E-score” value of the first is higher: 0.115 for the first, -0.00464 for the second.

First: AGAGACAA
Second: TGAGCTAA
The “PBM E-score” value of the first is lower: -0.0879 for the first, 0.0847 for the second.

Compared with AACATGGT, GGAGCTAA is lower in “PBM E-score” value: 0.0935 for the first, -0.128 for the second.

Compared with AGGTAAGG, CGAGCCGC is higher in “PBM E-score” value: 0.0286 for the first, 0.0468 for the second.

Going from ATCCTAAC to ACAAATGA, the “PBM E-score” value falls from 0.104 to 0.0902.

First: AGACTACT
Second: GGACGCCA
The “PBM E-score” value of the first is higher: -0.0196 for the first, -0.242 for the second.

First: GCCGACCA
Second: CATAGGGG
The “PBM E-score” value of the first is lower: -0.153 for the first, 0.0312 for the second.

First: ACTTACAC
Second: GACCATTA
The “PBM E-score” value of the first is lower: -0.04 for the first, 0.0621 for the second.

First: AGCGCCTG
Second: AATGAGTC
The “PBM E-score” value of the first is lower: -0.172 for the first, 0.0897 for the second.

First: CAATGTCG
Second: CTTAGCGA
The “PBM E-score” value of the first is higher: 0.0452 for the first, 0.0248 for the second.

Compared with GCGTTGCC, ATGCTTAG is higher in “PBM E-score” value: -0.143 for the first, 0.313 for the second.

Going from AAGAAGCT to TACACAGA, the “PBM E-score” value rises from -0.0487 to 0.0644.

First: CCTTACAC
Second: TACCGAAA
The “PBM E-score” value of the first is lower: -0.149 for the first, 0.0425 for the second.

First: AACAAGCG
Second: ATTGTTCC
The “PBM E-score” value of the first is higher: 0.206 for the first, 0.0946 for the second.

Going from AGTCGGCA to GCGCAGCC, the “PBM E-score” value falls from -0.0519 to -0.232.

Going from AGGCGGAG to AGAGCTGA, the “PBM E-score” value falls from 0.0837 to -0.0469.

First: AGAGATTG
Second: AAGCTCGG
The “PBM E-score” value of the first is lower: 0.0212 for the first, 0.0328 for the second.

Compared with ACCGCTTA, CAATATTA is higher in “PBM E-score” value: 0.0972 for the first, 0.275 for the second.

First: CTCCTAAA
Second: TAGGAAAA
The “PBM E-score” value of the first is lower: -0.234 for the first, -0.00948 for the second.

First: ATGTAATC
Second: GCGGCAAA
The “PBM E-score” value of the first is higher: 0.383 for the first, -0.00918 for the second.

Going from AATCCCCC to CGAATGTA, the “PBM E-score” value rises from -0.301 to 0.133.

Going from AATCGCTG to CAGCAAGA, the “PBM E-score” value rises from -0.0284 to 0.0833.

First: CTGCAAAC
Second: CGCCATTA
The “PBM E-score” value of the first is lower: -0.149 for the first, 0.129 for the second.

Compared with CCCTGTCC, AATGAAGC is higher in “PBM E-score” value: -0.33 for the first, 0.0233 for the second.

Compared with GACTTGAC, CCGTCTTA is higher in “PBM E-score” value: -0.208 for the first, -0.197 for the second.

Compared with GGTGGTAC, TATTTCGA is higher in “PBM E-score” value: -0.21 for the first, 0.242 for the second.

Compared with AACCAACG, TCATCAGA is higher in “PBM E-score” value: -0.0463 for the first, 0.0449 for the second.

Compared with ACCCATGC, AGACACCG is lower in “PBM E-score” value: 0.0388 for the first, -0.0873 for the second.

Compared with CTCTACCC, CTTTAAGC is lower in “PBM E-score” value: 0.0497 for the first, 0.0443 for the second.

Compared with CTCGATCC, ACGGGGCC is lower in “PBM E-score” value: -0.0163 for the first, -0.0302 for the second.
